Source: patent US11286304B2, “Anti-galectin-7 antibody, kit comprising the same, and uses thereof” (Academia Sinica, priority 2018, dated 2022)
At least one structure is not confirmed: it was looked up by name or label, or the drawing left a doubt.

How the values were obtained:
galectin-7 [1] = test: Galectin-7 expression in keratinocytes (real-time PCR, immunoblot); type: cell-based, human; details: for galectin-7 mRNA and protein expression: HaCaT cells, 24 hours, methylprednisolone 10.6 μM, tobramycin 8.6 μM, fluvastatin 9.2 μM, pempidine 13 μM
Experimental: Human keratinocyte cell line HaCaT was maintained at 37° C. in Dulbecco's modified Eagle's medium (DMEM) supplemented with 10% of fetal bovine serum (FBS), 2 mM glutamine, 100 U/ml penicillin and 100 μg/ml streptomycin. Short hairpin RNA (shRNA) reagents were obtained from the National RNAi Core Facility located at the Institute of Molecular Biology and Genomic Research Center, Academia Sinica, supported by the National Core Facility Program for Biotechnology Grants of NSC. Four shRNAs with clone IDs of TRCN0000057393, TRCN0000057394, TRCN0000057395, and TRCN0000057396 were used to generate stable galectin-7 knockdown HaCaT clones. HaCaT cells were infected with one of the four shRNA-expressing lentiviruses and puromycin was employed to select stable cell clones after 3 days of infection. After puromycin selection, four individual pooled clones were cultured in puromycin-free medium for 2 weeks before further analysis.
Primary neonatal human epithelial keratinocytes, HEKn cells, were purchased from Gibco. HEKn cells were cultured at 37° C. in keratinocyte serum-free medium (K-SFM) supplemented with 30 μg/ml bovine pituitary extract and 5 ng/ml recombinant human epidermal growth factor from the same company. Compared with HaCaT cells, HEKn cells have a limited proliferation ability and are not suitable for establishing shRNA-based stable knockdown cells; therefore, a small interfering RNA (siRNA) oligo was used to transiently knock down the expression of galectin-7. The Silencer® Select siRNAs were purchased from Invitrogen, including negative control #1 and a predesigned siRNA targeting human galectin-7 (Catalog number: s230574, which targets the sequence of exon 3 of NM_002307.3). Thirty picomoles of siRNAs were delivered into HEKn cells in a 6-well plate setup by means of Lipofectamine 2000.
Cells were harvested and lysed in RIPA lysis buffer containing 1% of Triton X-100 and a protease inhibitor cocktail, and total protein concentrations were measured with a protein assay kit. Proteins in the samples of the lysates with the same amounts of total protein were separated by sodium dodecyl sulfate polyacrylamide gel electrophoresis (SDS-PAGE) and analyzed by immunoblotting. Primary antibodies against phospho-Erk1 (pT202)/Erk2 (pT185), Erk1, Erk2, NF-κB p65, phospho-NF-κB p65 (pS536), IκBα, phospho-IκBα pS32, β-actin, or GAPDH were applied to detect the corresponding proteins. Horseradish peroxidase (HRP)-conjugated secondary antibodies against mouse, rabbit, or goat IgG were then incubated with the membranes, and proteins were visualized by chemiluminescence according to the manufacturer's instructions. Protein quantification was performed by software.
Total RNAs (including mRNA and miRNA) were extracted from cultured cells or mouse ears with the TRIzol Reagent. For measurement of human galectin-7, IL-6, IL-8, IL-17A, and IFN-γ levels, mRNAs were reverse-transcribed into cDNA by means of the cDNA synthesis kit, and real-time PCR was carried out with specific probes accompanied with primers targeting humangalectin-7, IL-6, and IL-8 according to the manufacturer's instructions.

[2] = test system: IL-23-induced psoriasis-like model; test: IL-23-induced mouse psoriasis-like model; type: in vivo; details: mice; for IL-23 induced ear skin thickening / IL-23 induced keratinocyte hyperplasia: 30 mg/kg/day oral gavage for 14 days
S100A7 = S100A7 mRNA expression in HaCaT cells (real-time PCR); type: cell-based, human; details: 24 hours, methylprednisolone 10.6 μM, tobramycin 8.6 μM, fluvastatin 9.2 μM, pempidine 13 μM
galectin-7 [3] = test: Galectin-7 mRNA in lung cancer cell lines (qPCR); type: cell-based, human; details: CL100 and PC9-IR cells, 24 hours; methylprednisolone 10.6 μM, tobramycin 8.6 μM, fluvastatin 9.2 μM, pempidine 13 μM
Experimental: (§1) CL83, CL141, CL100, CL25, PC9, PC9-IR, CL97, H1975, and H3255 cells were obtained from Dr. Pan-Chyr Yang (National Taiwan University, Taiwan), and A-431 (ATCC© CRL-1555™), H1650 ((ATCC© CRL-5883™)) and HCC827 ((ATCC© CRL-2868™)) cells were purchased from ATCC. Cells were cultured in RPMI 1640 medium supplemented with 10% fetal bovine serum (Gibco). The mRNA of A549, H23, H226BR, H358, H460, H661, H928, H1299, H1435, and H1437 cells were produced by conventional method, such as the method as described herein.
Total RNA from each lung cancer cell clone was extracted using TRIzol Reagent (Invitrogen), and cDNA for real-time PCR was generated using the iScript cDNA synthesis kit (Bio-Rad). Quantitative real-time PCR was performed using TaqMan buffer (Roche), and the primers and probes were designed using the Roche Universal Library (UPL). […] For real-time PCR, the CFX Connect Real-Time PCR System (Bio-Rad) was used, and the data were analyzed using CFX Manager software, in which the ΔΔCt method was employed to normalize the data against the endogenous control GAPDH.

IL-6 = IL-6 production by keratinocytes (ELISA); type: cell-based, human; details: for IL-6 production induced by IL-17A: galectin-7 knockdown keratinocytes, data not shown
Experimental: (§2) To measure the concentrations of proinflammatory cytokines secreted by keratinocytes, 2×10^4 cells were seeded in 96-well plates. Cells were incubated for 24 hours and then treated with 50 μg/ml LPS, 100 ng/ml human TNF-α, 100 or 200 ng/ml human IL-17A, 200 ng/ml human IL-22, 100 ng/ml human IL-23, or 50 ng/ml IFN-γ at 37° C. for 48 hours. In addition, the MEK inhibitor PD98059 was added along with stimulation by LPS or IL-17A (48 hours). The supernatants were then collected and analyzed by ELISAs, which were performed using a specific combination of paired antibodies (capture and detection antibodies).

IL-8 = IL-8 production by keratinocytes (ELISA); type: cell-based, human; details: for IL-8 production induced by IL-17A: galectin-7 knockdown keratinocytes, data not shown
Experimental: as §2

keratinocytes = test: Time-lapse analysis of fluvastatin-treated keratinocytes (cell proliferation); type: cell-based, human; details: data not shown
galectin-7 [4] = test: Galectin-7 protein in lung cancer cells (immunoblot); type: cell-based, human; details: 24 hours
Experimental: as §1
Lysates from different lung cancer cell samples were prepared and aliquots containing 30 μg of protein from each lysate were analyzed using either 10% or 12% sodium dodecyl sulfate-polyacrylamide gel electrophoresis (SDS-PAGE). A polyvinylidene difluoride Immobilon H-bond membrane (EMD Millipore) was used for immunoblot analysis. The primary antibody against galectin-7 (Novagen) was used.

galectin-7 [5] = test: Galectin-7 levels in lung cancer tumors transplanted in NOD SCID mice (IHC, immunoblot); type: in vivo; details: NOD SCID mice with A549, PC9, PC9-IR cells, 30 mg/kg daily oral gavage, day 21, vs saline
Experimental: NOD.CB17-Prkdcscid/JNarl mice obtained from National Laboratory Animal Center (Taiwan) were engrafted 2×10^6 lung cancer cells subcutaneously at the left and right flanks of the mice. After 10 days of tumor growth, mice were treated by oral gavage with 30 mg/kg fluvastatin or lovastatin in saline solution, or saline solution alone as control, once per day for 21 days. The tumor plaques were harvested and each of them was cut into two pieces. One piece was for immunoblot analysis, and the other one was fixed with 10% formalin and embedded into paraffin block for IHC staining. All animal studies were conducted in the experimental animal facilities of Institute of Biomedical Sciences, Academia Sinica, Taipei, Taiwan, in accordance to institutional rules and ethical guidelines for experimental animal care.

Ras = test: Ras-GTP pull-down assay with Raf-RBD beads in PC9-IR cells; type: cell-based, human; details: 10 μM fluvastatin, 24 hours
PC9-IR cells = test: Transwell migration assay; type: cell-based, human
CDH1 = CDH1 immunoblot in PC9-IR cells; type: cell-based, human; details: galectin-7 knockdown PC9-IR cells, fluvastatin
VIM = VIM immunoblot in PC9-IR cells; type: cell-based, human; details: galectin-7 knockdown PC9-IR cells, fluvastatin
galectin-7 [6] = test: Galectin-7 mRNA in skin cancer A-431 cells (qPCR); type: cell-based, human; details: fluvastatin 9.2 μM, 24 hours and 48 hours, vs DMSO and Mock
[7] = HaCaT cells, fluvastatin 9.2 μM, 2 days, IL-17A 200 ng/ml

`COCc1c(C(C)C)nc(C(C)C)c(/C=C/[C@@H](O)C[C@@H](O)CC(=O)O)c1-c1ccc(F)cc1` [cerivastatin] was tested, and the galectin-7 expression (galectin-7 [1]; keratinocytes, other statin drugs, data not shown) was “induced galectin-7 expression”.
`CC[C@H](C)C(=O)O[C@H]1C[C@H](O)C=C2C=C[C@H](C)[C@H](CC[C@@H](O)C[C@@H](O)CC(=O)O)[C@H]21` [pravastatin] was tested, and the “IL-23 induced ear skin thickening” value [2] was “rather than pravastatin” and the “IL-23 induced keratinocyte hyperplasia” value [2] was “rather than pravastatin”.
In the case of `C[C@H]1C[C@@H]2[C@H]([C@@H](O)C[C@@]3(C)[C@H]2CC[C@]3(O)C(=O)CO)[C@@]2(C)C=CC(=O)C=C12` [methylprednisolone], the “galectin-7 mRNA and protein expression” value (galectin-7 [1]) is reported as “only fluvastatin induced”, the “S100A7 mRNA expression” value (S100A7) is reported as “only fluvastatin” and the “galectin-7 expression (LGLAS7 mRNA)” value (galectin-7 [3]) is reported as “only fluvastatin induced”.
With `O=c1cc(N2CCOCC2)oc2c(-c3ccccc3)cccc12` [LY294002] the “IL-6 production induced by IL-17A” value (IL-6) was “not blocked” and the “IL-8 production induced by IL-17A” value (IL-8) was “not blocked”.
With `Oc1c2ccccc2c2c3c(cccc13)N=N2` [SP600125] the “IL-6 production induced by IL-17A” value (IL-6) was “not blocked” and the “IL-8 production induced by IL-17A” value (IL-8) was “not blocked”.
With `CC(C)n1c(/C=C/C(O)CC(O)CC(=O)O)c(-c2ccc(F)cc2)c2ccccc21` (centres unmarked) [fluvastatin] the “galectin-7 mRNA and protein expression” value (galectin-7 [1]) was “induced”, the “galectin-7 mRNA and protein expression” value (galectin-7 [1]; listed as Fluvastatin) was “increases galectin-7 levels” and the “galectin-7 expression in the presence of cytokines (TNF-α and IL-17A)” value (galectin-7 [1]; keratinocytes, immunoblot) was “enhanced galectin-7 expression above the basal levels”. The “S100A7 mRNA expression” value (S100A7) was “reduced”, the cell proliferation (keratinocytes) was “suppression of cell proliferation” and the “IL-17A-induced IL-6 secretion” value (IL-6; [7]) was “attenuated”. For the same compound, the “IL-17A-induced IL-8 secretion” value (IL-8; [7]) was “attenuated”, the “IL-23 induced ear skin thickening” value [2] was “attenuated” and the “IL-23 induced keratinocyte hyperplasia” value [2] was “attenuated”. For the same compound, the “IL-23 induced epidermal thickness” value ([2]; figure legend title) was “attenuated”, the “galectin-7 expression (LGLAS7 mRNA)” value (galectin-7 [3]) was “induced galectin-7 expression” and the galectin-7 expression (galectin-7 [4]; PC9-IR cells, 1 μM fluvastatin, FTS) was “increased galectin-7 expression”. The galectin-7 protein levels (galectin-7 [4]; several lung cancer cell lines, fluvastatin 0.1 to 10 M) was “upregulated in several lung cancer cell lines by fluvastatin in a dose-dependent manner”, the “galectin-7 expression in transplanted tumors” value (galectin-7 [5]) was “increased” and the Ras prenylation (Ras) was “inhibited”. For the same compound, the Ras-GTP formation (Ras) was “inhibited”, the cell migration (PC9-IR cells; control PC9-IR cells pretreated with 1 μM fluvastatin for 24 hours) was “inhibition of cell migration” and the cell migration (PC9-IR cells; galectin-7 knockdown PC9-IR cells pretreated with 1 μM fluvastatin for 24 hours) was “completely restored”. The CDH1 protein expression (CDH1) was “not being upregulated”, the VIM protein expression (VIM) was “not being downregulated” and the “galectin-7 mRNA expression” value (galectin-7 [6]) was “increased galectin-7 expression”. The “galectin-7 mRNA expression” value (galectin-7 [6]; listed as Fluvastatin) was “increases galectin-7 levels”.
